Values of other authors as cited in patent US20140235576A1, “PYRROLIDINE-2-CARBOXYLIC ACID DERIVATIVES AS IGLUR ANTAGONISTS” (Kobenhavns Universitet, priority 2013, published 2014).
Some of these results come from one statement about several compounds together. At least one structure is not confirmed: it was looked up by name or label, or the drawing left a doubt. Some compounds share one range, which may span the group rather than tell each member.

system: GluN2A-D subunits; conditions: varying degrees, literature ref 38; cited from earlier work

Row | SMILES | subunit preference among GluN2A-D
1 | NC(CCCP(=O)(O)O)C(=O)O [D-AP5] | 2-10 fold
2 | O=C(O)[C@H]1CN(CCCP(=O)(O)O)CCN1 [(R)-CPP] | 2-10 fold
3 | O=C(O)[C@@H]1C[C@H](CP(=O)(O)O)CCN1 [CGS19755] | 2-10 fold
